# Literature values in US11058744B2, “Composition for treating prostate cancer” (GemVax & KAEL Co., Ltd., priority 2013, dated 2021).
# For at least one compound, name, drawing or mass did not settle the structure.
# Test system: prostate cancer
# Conditions: used together with docetaxel; Liu et al 2010; cited from earlier work
structure (smiles),measurement,value
CO[C@H]1C[C@@H]2CC[C@@H](C)[C@@](O)(O2)C(=O)C(=O)N2CCCC[C@H]2C(=O)O[C@H]([C@H](C)C[C@@H]2CC[C@@H](O)[C@H](OC)C2)CC(=O)[C@H](C)/C=C(\C)[C@@H](O)[C@@H](OC)C(=O)[C@H](C)C[C@H](C)/C=C/C=C/C=C/1C [rapamycin],growth of various prostate cancer,efficiently inhibited
